No constants are given. Whether binding was seen depends on the method and setting. Binding can be weak; no strength is given.
Target: reaction center L subunit of Roseiflexus castenholzii (Roseiflexus castenholzii)
Assay: cryo-EM structure; single-particle cryo-EM of the rcRC-LH complex purified whole from native membranes, 3 mg/mL in 0.02% DDM, 150 mM NaCl, 50 mM Tris-HCl pH 8.0; 4.1 Å (subunit X helix seen after low-pass filter to 6 Å); both purified

binding: binds
B1: tetra-heme cytochrome c subunit of the reaction center of Roseiflexus castenholzii (protein, UniProt Q83XC9 4-320)
chain: QPPTLFPEITNTVRGRFYIVAGIISVVMAVASIAIFWWIFYTITPAPAPPLQNPIYVNYTQEPTDYISAESLAAMNAYIQANPQPQAVQVLKGMTTAQISAYMVAQVSGGLKVDCSYCHNIANFAQQDGYPNAAKKVTARKMMLMSADLNQNYTAKLPASVGGYQITCATCHNGKAAGLEPYPIEIMNTLPNDWRLPLELDYPGGLVVTGRKDVSNHEVEQNQFAMYHMNVSMGQGCTFCHNARYFPSYEIAQKNHSIIMLQMTKHIQETYVAPGGRIADGIMAGKSPSCWLCHQGANIPPGAAKPGQVPAVLSSTP

Source: article PMC5908803, “Cryo-EM structure of the RC-LH core complex from an early branching photosynthetic prokaryote” (Nature Communications, 2018)
